Assay results as given in the supplement of paper PMC10849652.
This is one part of the list.

Sequences of proteins named here, by UniProt entry; tags and fusion partners are left off. A change or cut given only in a name is not applied to a line headed by its entry.
UniProt Q53FZ2: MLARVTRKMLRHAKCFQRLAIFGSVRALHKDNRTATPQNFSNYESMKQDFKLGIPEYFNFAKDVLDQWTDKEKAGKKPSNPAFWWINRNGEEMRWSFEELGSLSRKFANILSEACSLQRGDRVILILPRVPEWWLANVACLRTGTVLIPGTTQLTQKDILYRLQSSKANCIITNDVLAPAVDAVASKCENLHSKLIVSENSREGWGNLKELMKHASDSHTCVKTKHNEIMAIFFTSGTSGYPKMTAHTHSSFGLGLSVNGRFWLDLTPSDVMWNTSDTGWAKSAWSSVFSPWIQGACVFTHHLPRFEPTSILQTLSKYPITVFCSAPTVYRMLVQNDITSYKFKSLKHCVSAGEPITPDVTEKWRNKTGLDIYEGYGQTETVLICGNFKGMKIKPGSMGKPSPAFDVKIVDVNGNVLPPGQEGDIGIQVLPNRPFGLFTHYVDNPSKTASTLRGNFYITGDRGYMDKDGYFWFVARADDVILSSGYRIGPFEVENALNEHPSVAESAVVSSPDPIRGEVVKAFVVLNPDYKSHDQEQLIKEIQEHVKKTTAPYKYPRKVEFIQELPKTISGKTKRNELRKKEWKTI
UniProt P11766: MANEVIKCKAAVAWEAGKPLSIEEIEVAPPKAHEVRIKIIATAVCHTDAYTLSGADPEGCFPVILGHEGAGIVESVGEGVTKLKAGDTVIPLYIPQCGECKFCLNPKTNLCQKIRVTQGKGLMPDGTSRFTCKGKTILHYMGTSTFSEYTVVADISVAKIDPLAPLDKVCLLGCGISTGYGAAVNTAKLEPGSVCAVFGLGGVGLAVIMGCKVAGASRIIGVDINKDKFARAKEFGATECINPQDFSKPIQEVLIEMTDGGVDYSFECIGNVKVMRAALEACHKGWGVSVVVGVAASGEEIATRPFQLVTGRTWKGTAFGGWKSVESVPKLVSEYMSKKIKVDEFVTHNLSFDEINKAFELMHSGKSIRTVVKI
UniProt Q9H2P0: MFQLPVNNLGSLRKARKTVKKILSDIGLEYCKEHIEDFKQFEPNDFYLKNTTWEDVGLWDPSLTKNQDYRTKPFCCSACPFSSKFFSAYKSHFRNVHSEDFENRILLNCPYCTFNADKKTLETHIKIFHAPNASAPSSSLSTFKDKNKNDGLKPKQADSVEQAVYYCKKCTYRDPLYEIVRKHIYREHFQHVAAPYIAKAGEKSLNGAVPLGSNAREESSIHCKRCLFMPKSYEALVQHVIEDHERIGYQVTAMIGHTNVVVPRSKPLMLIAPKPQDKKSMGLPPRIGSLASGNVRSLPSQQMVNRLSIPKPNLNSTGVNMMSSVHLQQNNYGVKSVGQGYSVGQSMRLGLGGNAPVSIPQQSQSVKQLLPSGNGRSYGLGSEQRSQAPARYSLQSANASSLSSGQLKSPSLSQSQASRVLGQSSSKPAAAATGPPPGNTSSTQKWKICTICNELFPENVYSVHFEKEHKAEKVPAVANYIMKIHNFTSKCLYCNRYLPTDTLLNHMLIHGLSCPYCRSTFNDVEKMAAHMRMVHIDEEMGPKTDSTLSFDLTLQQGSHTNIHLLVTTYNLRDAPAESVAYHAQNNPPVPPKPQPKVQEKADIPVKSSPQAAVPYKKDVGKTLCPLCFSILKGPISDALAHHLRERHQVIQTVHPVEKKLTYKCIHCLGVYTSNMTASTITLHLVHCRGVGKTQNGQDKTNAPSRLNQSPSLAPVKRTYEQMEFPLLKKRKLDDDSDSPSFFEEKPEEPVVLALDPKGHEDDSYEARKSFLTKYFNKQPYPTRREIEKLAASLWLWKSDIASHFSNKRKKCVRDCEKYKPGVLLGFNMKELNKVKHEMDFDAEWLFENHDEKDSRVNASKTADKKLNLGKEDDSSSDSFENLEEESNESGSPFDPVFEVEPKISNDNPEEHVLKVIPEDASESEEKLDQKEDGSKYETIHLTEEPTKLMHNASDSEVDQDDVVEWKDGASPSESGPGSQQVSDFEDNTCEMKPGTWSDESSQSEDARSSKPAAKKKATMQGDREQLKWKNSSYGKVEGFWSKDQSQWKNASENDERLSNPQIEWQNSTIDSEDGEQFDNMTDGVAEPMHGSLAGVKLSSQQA
UniProt P42330: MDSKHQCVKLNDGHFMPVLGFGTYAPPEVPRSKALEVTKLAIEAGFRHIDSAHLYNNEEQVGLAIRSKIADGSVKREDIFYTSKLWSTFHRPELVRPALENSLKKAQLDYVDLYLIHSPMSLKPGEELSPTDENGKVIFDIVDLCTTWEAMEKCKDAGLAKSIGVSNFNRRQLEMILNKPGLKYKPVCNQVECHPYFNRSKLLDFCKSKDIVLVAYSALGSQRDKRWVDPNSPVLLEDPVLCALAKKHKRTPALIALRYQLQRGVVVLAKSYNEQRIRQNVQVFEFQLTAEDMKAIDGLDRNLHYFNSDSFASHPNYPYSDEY
UniProt P35611: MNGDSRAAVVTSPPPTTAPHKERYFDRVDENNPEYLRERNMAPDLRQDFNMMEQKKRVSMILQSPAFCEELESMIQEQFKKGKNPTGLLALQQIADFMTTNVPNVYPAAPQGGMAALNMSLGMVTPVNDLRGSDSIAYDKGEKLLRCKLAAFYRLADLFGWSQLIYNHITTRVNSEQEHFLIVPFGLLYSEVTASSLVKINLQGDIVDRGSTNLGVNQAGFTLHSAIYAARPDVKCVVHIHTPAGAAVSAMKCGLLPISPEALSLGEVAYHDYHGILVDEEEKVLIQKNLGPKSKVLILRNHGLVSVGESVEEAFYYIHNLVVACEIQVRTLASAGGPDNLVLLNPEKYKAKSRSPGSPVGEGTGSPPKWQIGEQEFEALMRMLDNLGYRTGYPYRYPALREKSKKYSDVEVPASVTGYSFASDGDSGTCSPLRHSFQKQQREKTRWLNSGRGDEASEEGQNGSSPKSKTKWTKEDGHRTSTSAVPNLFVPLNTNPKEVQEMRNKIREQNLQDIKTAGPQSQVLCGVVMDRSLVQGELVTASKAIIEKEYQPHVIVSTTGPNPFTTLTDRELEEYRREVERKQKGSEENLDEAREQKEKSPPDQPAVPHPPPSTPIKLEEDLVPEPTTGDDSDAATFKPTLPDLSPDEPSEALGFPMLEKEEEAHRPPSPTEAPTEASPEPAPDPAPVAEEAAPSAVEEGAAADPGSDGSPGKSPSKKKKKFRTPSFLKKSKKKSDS
UniProt Q96SZ5, whole entry, looked up: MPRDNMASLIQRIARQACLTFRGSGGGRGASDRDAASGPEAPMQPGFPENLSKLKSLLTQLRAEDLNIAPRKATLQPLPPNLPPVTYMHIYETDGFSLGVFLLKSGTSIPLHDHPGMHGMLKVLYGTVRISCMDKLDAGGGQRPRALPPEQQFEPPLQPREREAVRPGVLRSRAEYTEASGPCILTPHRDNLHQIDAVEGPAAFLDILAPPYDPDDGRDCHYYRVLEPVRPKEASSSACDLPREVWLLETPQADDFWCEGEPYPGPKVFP
UniProt P24666: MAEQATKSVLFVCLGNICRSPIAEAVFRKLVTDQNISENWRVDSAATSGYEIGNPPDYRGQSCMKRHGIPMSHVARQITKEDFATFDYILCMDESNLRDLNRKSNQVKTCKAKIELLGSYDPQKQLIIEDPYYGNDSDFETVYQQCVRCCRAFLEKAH
UniProt Q02952: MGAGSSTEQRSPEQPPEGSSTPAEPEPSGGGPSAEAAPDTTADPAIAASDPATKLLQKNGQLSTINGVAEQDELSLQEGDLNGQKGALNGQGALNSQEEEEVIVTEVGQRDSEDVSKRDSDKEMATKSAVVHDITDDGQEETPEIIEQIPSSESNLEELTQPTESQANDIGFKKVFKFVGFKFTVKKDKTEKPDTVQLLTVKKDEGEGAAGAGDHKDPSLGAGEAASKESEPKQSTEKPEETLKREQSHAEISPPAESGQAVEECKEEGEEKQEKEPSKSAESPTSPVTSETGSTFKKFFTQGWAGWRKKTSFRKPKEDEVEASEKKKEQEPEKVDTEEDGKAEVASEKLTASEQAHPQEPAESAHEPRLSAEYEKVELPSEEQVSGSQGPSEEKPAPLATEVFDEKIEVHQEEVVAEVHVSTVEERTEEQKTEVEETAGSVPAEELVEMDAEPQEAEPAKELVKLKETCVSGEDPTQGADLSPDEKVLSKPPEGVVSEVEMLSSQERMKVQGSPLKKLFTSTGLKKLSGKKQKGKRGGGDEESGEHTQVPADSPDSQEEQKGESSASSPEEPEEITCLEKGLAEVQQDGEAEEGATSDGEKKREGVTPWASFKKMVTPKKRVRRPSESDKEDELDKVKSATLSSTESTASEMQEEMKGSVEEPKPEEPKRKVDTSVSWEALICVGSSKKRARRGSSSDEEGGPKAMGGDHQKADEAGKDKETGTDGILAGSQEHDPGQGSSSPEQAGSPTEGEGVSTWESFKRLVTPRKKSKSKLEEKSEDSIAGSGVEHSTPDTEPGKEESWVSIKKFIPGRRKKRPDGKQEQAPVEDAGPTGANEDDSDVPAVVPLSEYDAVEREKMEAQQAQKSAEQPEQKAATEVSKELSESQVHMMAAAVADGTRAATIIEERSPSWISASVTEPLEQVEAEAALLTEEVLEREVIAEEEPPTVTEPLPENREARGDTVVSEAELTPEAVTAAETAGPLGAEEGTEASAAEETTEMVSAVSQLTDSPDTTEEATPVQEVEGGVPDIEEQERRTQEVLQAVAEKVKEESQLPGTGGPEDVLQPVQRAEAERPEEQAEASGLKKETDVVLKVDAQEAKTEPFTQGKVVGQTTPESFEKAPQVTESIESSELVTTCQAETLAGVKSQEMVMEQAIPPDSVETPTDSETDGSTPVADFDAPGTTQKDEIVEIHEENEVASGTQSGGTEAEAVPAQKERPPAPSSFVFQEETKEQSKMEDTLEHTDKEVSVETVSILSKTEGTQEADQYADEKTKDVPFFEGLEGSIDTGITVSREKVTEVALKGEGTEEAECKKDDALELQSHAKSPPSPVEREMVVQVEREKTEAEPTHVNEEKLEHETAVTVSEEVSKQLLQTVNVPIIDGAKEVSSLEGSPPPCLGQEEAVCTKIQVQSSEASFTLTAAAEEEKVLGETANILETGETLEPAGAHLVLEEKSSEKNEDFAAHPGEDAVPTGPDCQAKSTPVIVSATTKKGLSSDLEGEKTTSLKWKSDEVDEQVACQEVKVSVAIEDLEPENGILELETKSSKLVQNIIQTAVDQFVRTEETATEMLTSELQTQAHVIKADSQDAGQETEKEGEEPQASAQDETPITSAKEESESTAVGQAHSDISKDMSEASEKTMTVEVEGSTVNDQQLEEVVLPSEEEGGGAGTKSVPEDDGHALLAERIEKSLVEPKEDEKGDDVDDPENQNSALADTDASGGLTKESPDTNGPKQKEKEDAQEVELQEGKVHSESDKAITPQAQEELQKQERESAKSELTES
UniProt P54922: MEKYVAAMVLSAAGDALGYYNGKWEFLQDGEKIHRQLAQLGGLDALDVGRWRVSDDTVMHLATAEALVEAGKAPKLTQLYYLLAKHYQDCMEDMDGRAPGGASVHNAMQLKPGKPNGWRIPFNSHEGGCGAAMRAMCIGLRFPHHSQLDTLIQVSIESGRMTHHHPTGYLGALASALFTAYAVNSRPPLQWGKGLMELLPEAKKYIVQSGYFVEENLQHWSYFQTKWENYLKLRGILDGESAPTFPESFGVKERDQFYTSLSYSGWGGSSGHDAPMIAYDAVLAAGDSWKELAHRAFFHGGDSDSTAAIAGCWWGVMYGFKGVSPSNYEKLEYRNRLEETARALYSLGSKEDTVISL
UniProt Q96P47: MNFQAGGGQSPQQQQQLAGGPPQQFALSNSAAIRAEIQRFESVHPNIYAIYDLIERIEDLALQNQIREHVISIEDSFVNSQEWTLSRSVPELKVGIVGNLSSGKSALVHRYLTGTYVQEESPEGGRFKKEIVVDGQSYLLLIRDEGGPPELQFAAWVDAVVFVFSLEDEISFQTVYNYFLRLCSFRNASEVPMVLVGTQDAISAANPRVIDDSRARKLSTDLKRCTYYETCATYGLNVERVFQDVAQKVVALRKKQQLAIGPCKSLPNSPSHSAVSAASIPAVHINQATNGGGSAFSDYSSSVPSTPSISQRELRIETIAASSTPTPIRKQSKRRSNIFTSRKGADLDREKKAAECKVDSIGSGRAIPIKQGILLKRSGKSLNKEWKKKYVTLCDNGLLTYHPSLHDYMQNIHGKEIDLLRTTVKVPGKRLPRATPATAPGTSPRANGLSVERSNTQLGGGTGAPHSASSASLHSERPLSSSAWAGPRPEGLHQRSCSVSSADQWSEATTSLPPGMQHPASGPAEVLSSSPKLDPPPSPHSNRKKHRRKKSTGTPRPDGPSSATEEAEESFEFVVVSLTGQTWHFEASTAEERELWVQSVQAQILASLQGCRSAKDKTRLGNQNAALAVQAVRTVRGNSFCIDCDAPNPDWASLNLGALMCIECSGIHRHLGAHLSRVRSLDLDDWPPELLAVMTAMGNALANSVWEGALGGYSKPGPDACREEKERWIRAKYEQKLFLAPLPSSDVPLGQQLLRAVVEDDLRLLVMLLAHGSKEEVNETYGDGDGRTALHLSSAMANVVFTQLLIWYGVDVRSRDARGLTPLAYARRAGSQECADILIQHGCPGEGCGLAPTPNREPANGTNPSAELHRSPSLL

Compound: C=CC(=O)N1CCC[C@@H](n2nc(-c3ccc(Oc4ccccc4)cc3)c3c(N)ncnc32)C1 [ibrutinib]
Experiment: log2 fold change, soluble protein after heating vs DMSO (PISA); higher = thermal stabilisation; K562 lysate, 10 uM; active = over 0.2 and 3.5 SD of the protein, either way, in both replicates (recomputed)
How it was run: (§1)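 Thermal stability, expressed as log-two fold change relative to solvent controls, is given from duplicates. Crude K562 extract in PBS pH 7.4 with 1 mM MgCl2, at 1 mg/mL protein, was treated with 10 μM compound for 30 min and heated in aliquots for 3 min across 48°C-58°C. After pooling, adjustment to 0.5% NP-40 at 4°C and centrifugation at 21,000xg for 90 min, supernatant protein was measured by TMTpro 16plex LC-MS/MS with channel sums equalised.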

Target | log2 fold change
ACSM3 (UniProt Q53FZ2) | inactive: -0.036
ADH5 (UniProt P11766) | inactive: -0.019
ADNP (UniProt Q9H2P0) | inactive: 0.002
AKR1C3 (UniProt P42330) | inactive: -0.033
ADD1 isoform 3 (UniProt P35611) | inactive: -0.006
ADO (UniProt Q96SZ5) | inactive: 0.032
ACSL4 (UniProt O60488) | inactive: 0.035
AKR1A1 (UniProt P14550) | inactive: -0.009
ACP1 isoform 2 (UniProt P24666) | inactive: -0.041
ACTR1A (UniProt P61163) | inactive: 0
AKAP12 (UniProt Q02952) | inactive: 0.056
AK4 (UniProt P27144) | inactive: 0.06
AGPS (UniProt O00116) | inactive: 0.01
ACTB, A0A2R8Y793 | inactive: -0.003
ACTR2 (UniProt P61160) | inactive: -0.006
ACSF3 (UniProt Q4G176) | inactive: 0.022
AGTPBP1 (UniProt Q9UPW5) | inactive: -0.255
AHSA1 (UniProt O95433) | inactive: 0.013
ADPRH (UniProt P54922) | inactive: 0.046
AFF1 isoform 2 (UniProt P51825) | inactive: 0.136
AGAP3 isoform 4 (UniProt Q96P47) | inactive: -0.013
AIFM1 (UniProt O95831) | inactive: 0.005

Compound: CC(=O)c1cnc2ccc(-c3cc(Cl)c(O)c(Cl)c3)nc2c1N[C@H]1CC[C@H](CN(C)C)CC1
Experiment: as above
How it was run: as §1

Target | log2 fold change
AIP (UniProt O00170) | inactive: -0.004
ACY1 (UniProt Q03154) | inactive: 0.009
ACTG1 (UniProt I3L4N8) | inactive: 0.053
ACYP1 (UniProt P07311) | inactive: 0.027
ADIPOR2 (UniProt Q86V24) | inactive: 0.019
ACSL1 (UniProt P33121) | inactive: 0.008
ACOT9 isoform 4 (UniProt Q9Y305) | inactive: -0.001
AGFG1 isoform 4 (UniProt P52594) | inactive: 0.006
ADA (UniProt P00813) | inactive: 0.008
ADAM10 (UniProt O14672) | inactive: -0.001
AFF4 (UniProt Q9UHB7) | inactive: -0.009
AKNA (UniProt Q7Z591) | inactive: 0.08
ACSM3 (UniProt Q53FZ2) | inactive: 0.044
ADH5 (UniProt P11766) | inactive: 0.004
ADNP (UniProt Q9H2P0) | inactive: -0.009
AKR1C3 (UniProt P42330) | inactive: 0.016
ADD1 isoform 3 (UniProt P35611) | inactive: -0.009

Target | log2 fold change
ADO (UniProt Q96SZ5) | inactive: 0.002
ACSL4 (UniProt O60488) | inactive: -0.012
AKR1A1 (UniProt P14550) | inactive: -0.009
ACP1 isoform 2 (UniProt P24666) | inactive: 0.012
ACTR1A (UniProt P61163) | inactive: -0.005
AKAP12 (UniProt Q02952) | inactive: -0.06
AK4 (UniProt P27144) | inactive: -0.019
AGPS (UniProt O00116) | inactive: -0.004
ACTB, A0A2R8Y793 | inactive: 0.006
ACTR2 (UniProt P61160) | inactive: -0.015
ACSF3 (UniProt Q4G176) | inactive: 0.026
AGTPBP1 (UniProt Q9UPW5) | inactive: 0.001
AHSA1 (UniProt O95433) | inactive: -0.013
ADPRH (UniProt P54922) | inactive: 0.01
AFF1 isoform 2 (UniProt P51825) | inactive: -0.028
AGAP3 isoform 4 (UniProt Q96P47) | inactive: 0.003
AIFM1 (UniProt O95831) | inactive: 0.004

Compound: CC(C)(C)Cn1c(N)nc2ccc(-c3[nH]c(C(C)(C)C)nc3-c3ccc(F)cc3)nc21 [ralimetinib]
Experiment: as above
How it was run: as §1

Target | log2 fold change
AIP (UniProt O00170) | inactive: -0.022
ACY1 (UniProt Q03154) | inactive: 0.027
ACTG1 (UniProt I3L4N8) | inactive: -0.019
ACYP1 (UniProt P07311) | inactive: 0
ADIPOR2 (UniProt Q86V24) | inactive: 0.046
ACSL1 (UniProt P33121) | inactive: -0.004
ACOT9 isoform 4 (UniProt Q9Y305) | inactive: 0.012
AGFG1 isoform 4 (UniProt P52594) | inactive: -0.035
ADA (UniProt P00813) | inactive: 0.003
ADAM10 (UniProt O14672) | inactive: 0.037
AFF4 (UniProt Q9UHB7) | inactive: -0.049
AKNA (UniProt Q7Z591) | inactive: 0.053
ACSM3 (UniProt Q53FZ2) | inactive: 0.009
ADH5 (UniProt P11766) | inactive: 0.004
ADNP (UniProt Q9H2P0) | inactive: 0.024
AKR1C3 (UniProt P42330) | inactive: -0.028
ADD1 isoform 3 (UniProt P35611) | inactive: 0

Target | log2 fold change
ADO (UniProt Q96SZ5) | inactive: -0.035
ACSL4 (UniProt O60488) | inactive: 0.051
AKR1A1 (UniProt P14550) | inactive: -0.009
ACP1 isoform 2 (UniProt P24666) | inactive: 0.001
ACTR1A (UniProt P61163) | inactive: 0.013
AKAP12 (UniProt Q02952) | inactive: -0.063
AK4 (UniProt P27144) | inactive: -0.036
AGPS (UniProt O00116) | inactive: -0.013
ACTB, A0A2R8Y793 | inactive: 0.03
ACTR2 (UniProt P61160) | inactive: -0.002
ACSF3 (UniProt Q4G176) | inactive: -0.044
AGTPBP1 (UniProt Q9UPW5) | inactive: 0.013
AHSA1 (UniProt O95433) | inactive: -0.009
ADPRH (UniProt P54922) | inactive: -0.001
AFF1 isoform 2 (UniProt P51825) | inactive: 0.078
AGAP3 isoform 4 (UniProt Q96P47) | inactive: 0.014
AIFM1 (UniProt O95831) | inactive: -0.024
